Results are given in words; binding and its absence hold for the method and conditions named. Binding seen in cells or lysates may run through a third protein. Some entries that bind do so weakly or less than the wild type. Where a sequence is shown, tags or fusion partners need not be part of it.
Biological target: T1, Evi5-3xFlag expressed in S2 cells (pAFW-Evi5-3XFlag) (Drosophila) (UniProt Q9VYY9)
T1 sequence: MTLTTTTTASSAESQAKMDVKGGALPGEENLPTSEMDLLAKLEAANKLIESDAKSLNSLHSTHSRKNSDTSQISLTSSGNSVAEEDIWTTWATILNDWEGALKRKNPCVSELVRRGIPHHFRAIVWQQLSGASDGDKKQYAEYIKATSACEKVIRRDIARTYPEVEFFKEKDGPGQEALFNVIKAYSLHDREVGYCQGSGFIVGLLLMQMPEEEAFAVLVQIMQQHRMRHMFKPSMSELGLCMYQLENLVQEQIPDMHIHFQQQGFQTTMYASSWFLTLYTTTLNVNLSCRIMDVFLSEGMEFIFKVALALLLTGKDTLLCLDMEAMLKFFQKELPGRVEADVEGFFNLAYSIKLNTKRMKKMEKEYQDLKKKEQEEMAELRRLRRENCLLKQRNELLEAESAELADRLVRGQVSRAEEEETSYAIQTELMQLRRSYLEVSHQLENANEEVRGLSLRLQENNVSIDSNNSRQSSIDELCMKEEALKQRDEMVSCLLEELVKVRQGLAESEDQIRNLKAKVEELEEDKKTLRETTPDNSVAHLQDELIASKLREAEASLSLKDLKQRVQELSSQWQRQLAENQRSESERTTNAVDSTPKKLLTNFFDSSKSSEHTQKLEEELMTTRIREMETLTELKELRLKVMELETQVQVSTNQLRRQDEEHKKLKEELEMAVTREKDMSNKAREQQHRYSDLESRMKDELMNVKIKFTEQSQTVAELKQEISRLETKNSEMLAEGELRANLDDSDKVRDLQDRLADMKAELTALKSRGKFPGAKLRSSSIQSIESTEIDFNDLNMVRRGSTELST
Assay: co-IP; S2 cells co-transfected with plasmids; Flag-tagged Evi5 as bait; blots with anti-Flag and anti-Myc

B1: Fer1HCH-3xMyc expressed in S2 cells (protein, UniProt Q7KRU8 20-205)
chain: DFKCSLAVPEITKDWVDMKDACIKGMRNQIQEEINASYQYLAMGAYFSRDTVNRPGFAEHFFKAAKEEREHGSKLVEYLSMRGQLTEGVSDLINVPTVAKQEWTDGAAALSDALDLEIKVTKSIRKLIQTCENKPYNHYHLVDYLTGVYLEEQLHGQRELAGKLTTLKKMMDTNGELGEFLFDKTL
For B1, the binding was “binds”.
